Test results as given in article PMC5327911 (Clinical Pharmacology : Advances and Applications, 2017).

Key:
P-glycoprotein (P-gp) = conditions: cited from earlier work
[1] = human, plasma, oral, 100 mg
[2] = cited from earlier work

- AUC(0-inf) [1]: 5600 ng·h/mL
- AUC(0-t) [1]: 5500 ng·h/mL
- Cmax [1]: 603 ng/mL
- Tmax [1]: 3 h
SMILES: CC(C)NCC(O)COc1ccc(CC(N)=O)cc1 (stereo not drawn) [Atenolol, atenolol]
- inhibition of P-gp-mediated transport (P-glycoprotein (P-gp)): does not inhibit
- protein-bound [2]: ≤ 25%
